Reference: patent US7906522B2, “2-aminoquinazoline derivatives” (Kyowa Hakko Kirin Co., Ltd, priority 2005, dated 2011)
Some of these results come from one statement about several compounds together. At least one structure is not confirmed: it was looked up by name or label, or the drawing left a doubt.

The chains behind the UniProt entries cited, without tags or fusion partners.
UniProt Q16539, whole entry: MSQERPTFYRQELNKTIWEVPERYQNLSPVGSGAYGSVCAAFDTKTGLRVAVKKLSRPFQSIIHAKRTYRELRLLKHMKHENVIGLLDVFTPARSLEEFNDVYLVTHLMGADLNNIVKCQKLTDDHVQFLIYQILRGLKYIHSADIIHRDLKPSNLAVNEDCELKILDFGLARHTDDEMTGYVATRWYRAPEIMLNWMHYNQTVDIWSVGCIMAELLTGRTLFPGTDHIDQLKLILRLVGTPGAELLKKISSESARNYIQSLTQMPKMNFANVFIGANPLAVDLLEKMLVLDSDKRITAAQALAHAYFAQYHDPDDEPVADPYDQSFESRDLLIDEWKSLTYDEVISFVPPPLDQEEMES

Each compound was assayed against T1, Activated human p38α (Homo sapiens, UniProt Q16539) (assay: p38MAP kinase inhibition test). Conditions: at a concentration of 1 μmol/L; substrate myelin basic protein, ATP 20 μmol/L, [γ-32P]ATP.
T1 construct: purchased Upstate Biotechnology Inc. 14-251
Assay type: biochemical
Procedure: p38MAP Kinase Inhibition Test
Activated human p38α was purchased from Upstate Biotechnology Inc. (Catalog No. 14-251). P38MAP kinase inhibitory activity was measured by the procedure described below with reference to the method by Whitmarsh A. J. and Davis R. J. [Methods in Enzymology (Method. Enzymol.), vol. 332, p. 319-336 (2001)]. As the substrate to be phosphorylated, a myelin basic protein (Catalog No. 133-13493, Wako Pure Chemical Industries, Ltd.) (20 μg/assay) was used. The reaction was carried out in a solution containing 3-[N-Morpholino]propanesulfonic acid (MOPS) (20 mmol/L, pH 7.2), β-glycerophosphoric acid (Sigma Corp.) (25 mmol/L), ethylenebis(oxyethylenenitrilo)tetraacetic acid (EGTA) (1 mmol/L), […] (Sigma-Aldrich Corp.) (1 mmol/L), dithiothreitol (DTT, Wako Pure Chemical Industries, Ltd.) (1 mmol/L), adenosine 5′-triphosphate (ATP, Sigma Corp.) (20 μmol/L), and MgCl2 (18.75 mmol/L) (total 40 μL/assay). The reaction was started by adding human p38α and [γ-^32P]ATP (1 μCi/assay), and incubation was performed at 30° C. for 15 minutes. The reaction was terminated by adding 4.5% v/v phosphoric acid (10 μL/well). Then, 45 μL of the reaction mixture was adsorbed onto phosphocellulose paper (p81 paper, Code No. 3698023, Whatman International, Maidstone, UK). The phosphocellulose paper was washed with 0.75% v/v phosphoric acid. Then, the radioactivity of the phosphorylated myelin basic protein ([^32P]) remaining on the phosphocellulose paper was measured with a scintillation counter (TRI-CARB2700TR, PerkinElmer, Boston, Mass., USA) using program No. 27 (data mode: cpm, measurement time: 1 min, Background substract: none, energy range measured: LL 0.0-UL 2000) or a scintillation counter (LS6500, BeckmanCoulter, Fullerton, Calif., USA) using program No. 17 (data mode: cpm, measurement time: 1 min, Background substract: none, energy range measured: high). The test compound was dissolved in DMSO before addition.

Compound	enzyme inhibitory activity
CNC(=O)COc1cc2nc(NC(C)C)ncc2cc1-c1ccccc1Cl [Compound 36, 6-(2-Chlorophenyl)-2-isopropylamino-7-(N-methylcarbamoylmethyloxy)quinazoline]	≥ 50%
COc1cc2nc(NCC(C)(C)C)ncc2cc1-c1ccccc1Cl [Compound 153, 6-(2-Chlorophenyl)-2-[2,2-(dimethylpropyl)amino]-7-methoxyquinazoline]	≥ 50%
CC(C)(C)CNc1ncc2cc(-c3ccccc3Cl)c(O)cc2n1 [Compound 159, 6-(2-Chlorophenyl)-2-[2,2-(dimethyl)propylamino]-7-hydroxyquinazoline]	≥ 50%
Cc1ccc(NC(=O)c2cc[n+]([O-])cc2)cc1-c1ccc2nc(NC(C)C)ncc2c1 [Compound 260, 2-Isopropylamino-6-{2-methyl-5-[(pyridin-1-oxide-4-yl)carbonylamino]phenyl}quinazoline]	≥ 50%
CC(C)Nc1ncc2cc(-c3cccc[n+]3[O-])ccc2n1 [Compound 271, 2-Isopropylamino-6-(pyridine-1-oxide-2-yl)quinazoline]	≥ 50%
Cc1ccccc1-c1cc2cnc(Nc3c(C)cc(C(C)(C)C)cc3C)nc2cc1O [Compound 301, 2-[(4-tert-Butyl-2,6-dimethyl)anilino]-7-hydroxy-6-(2-methylphenyl)quinazoline]	≥ 50%
COc1cc(C)c(Nc2ncc3cc(-c4ccccc4C)c(O)cc3n2)c(C)c1 [Compound 302, 2-[(2,6-Dimethyl-4-methoxy)anilino]-7-hydroxy-6-(2-methylphenyl)quinazoline]	≥ 50%
Cc1ccccc1-c1cc2cnc(Nc3c(Cl)cc(N)cc3Cl)nc2cc1O [Compound 305, 2-[(4-Amino-2,6-dichloro)anilino]-7-hydroxy-6-(2-methylphenyl)quinazoline]	≥ 50%
Cc1ccccc1-c1cc2cnc(Nc3c(Cl)cc(NS(C)(=O)=O)cc3Cl)nc2cc1O [Compound 307, 2-{[2,6-Dichloro-4-(methylsulfonyl)amino]anilino}-7-hydroxy-6-(2-methylphenyl)quinazoline]	≥ 50%
Cc1ccc(C(=O)NC2CC2)cc1-c1cc2cnc(Nc3c(Cl)cc(N)cc3Cl)nc2cc1O [Compound 320, 2-[(4-Amino-2,6-dichloro)anilino]-6-(5-cyclopropylcarbamoyl-2-methylphenyl)-7-hydroxyquinazoline]	≥ 50%
